Source: the supplement of paper PMC10849652
This is one part of the list.

Protein sequences, listed by entry. Tags and fused reporters are not part of them. Lines headed by an entry give the natural chain unless they say otherwise; changes in a name come on top.
UniProt Q9NYG2: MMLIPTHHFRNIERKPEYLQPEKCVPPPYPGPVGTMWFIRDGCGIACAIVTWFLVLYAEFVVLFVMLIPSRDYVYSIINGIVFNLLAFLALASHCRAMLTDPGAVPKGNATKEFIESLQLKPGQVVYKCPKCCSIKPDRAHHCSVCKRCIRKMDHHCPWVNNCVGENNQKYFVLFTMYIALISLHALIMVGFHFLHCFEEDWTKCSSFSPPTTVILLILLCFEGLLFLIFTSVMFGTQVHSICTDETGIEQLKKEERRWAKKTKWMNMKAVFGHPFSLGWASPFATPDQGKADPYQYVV
UniProt Q96KR1: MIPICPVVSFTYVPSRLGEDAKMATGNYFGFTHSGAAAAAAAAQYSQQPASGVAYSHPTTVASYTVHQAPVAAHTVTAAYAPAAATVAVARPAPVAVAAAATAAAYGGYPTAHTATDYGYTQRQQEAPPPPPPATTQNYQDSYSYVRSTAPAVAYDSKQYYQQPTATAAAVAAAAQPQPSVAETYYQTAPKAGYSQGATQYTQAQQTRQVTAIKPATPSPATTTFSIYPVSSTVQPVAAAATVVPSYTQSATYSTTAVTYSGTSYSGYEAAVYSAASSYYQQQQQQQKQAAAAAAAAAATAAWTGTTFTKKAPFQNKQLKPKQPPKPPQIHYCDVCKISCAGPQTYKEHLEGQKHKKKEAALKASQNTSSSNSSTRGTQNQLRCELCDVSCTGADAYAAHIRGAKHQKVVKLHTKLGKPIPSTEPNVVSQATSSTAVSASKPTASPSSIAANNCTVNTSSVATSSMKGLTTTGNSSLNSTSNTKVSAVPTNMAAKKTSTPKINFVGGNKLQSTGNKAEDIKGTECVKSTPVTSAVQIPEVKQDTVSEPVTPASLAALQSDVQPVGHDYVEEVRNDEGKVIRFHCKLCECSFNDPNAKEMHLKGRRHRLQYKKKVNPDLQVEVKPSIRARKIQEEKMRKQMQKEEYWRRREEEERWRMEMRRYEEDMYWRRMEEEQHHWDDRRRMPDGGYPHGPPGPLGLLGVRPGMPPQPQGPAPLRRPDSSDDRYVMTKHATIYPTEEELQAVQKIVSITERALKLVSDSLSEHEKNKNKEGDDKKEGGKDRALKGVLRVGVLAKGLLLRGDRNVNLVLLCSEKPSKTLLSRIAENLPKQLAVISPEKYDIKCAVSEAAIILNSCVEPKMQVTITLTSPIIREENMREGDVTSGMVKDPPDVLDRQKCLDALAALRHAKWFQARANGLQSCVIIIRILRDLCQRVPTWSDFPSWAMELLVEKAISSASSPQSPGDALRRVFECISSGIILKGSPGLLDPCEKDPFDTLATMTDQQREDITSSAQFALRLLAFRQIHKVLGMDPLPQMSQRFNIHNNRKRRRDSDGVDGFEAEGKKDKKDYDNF
UniProt P07947, whole entry, looked up: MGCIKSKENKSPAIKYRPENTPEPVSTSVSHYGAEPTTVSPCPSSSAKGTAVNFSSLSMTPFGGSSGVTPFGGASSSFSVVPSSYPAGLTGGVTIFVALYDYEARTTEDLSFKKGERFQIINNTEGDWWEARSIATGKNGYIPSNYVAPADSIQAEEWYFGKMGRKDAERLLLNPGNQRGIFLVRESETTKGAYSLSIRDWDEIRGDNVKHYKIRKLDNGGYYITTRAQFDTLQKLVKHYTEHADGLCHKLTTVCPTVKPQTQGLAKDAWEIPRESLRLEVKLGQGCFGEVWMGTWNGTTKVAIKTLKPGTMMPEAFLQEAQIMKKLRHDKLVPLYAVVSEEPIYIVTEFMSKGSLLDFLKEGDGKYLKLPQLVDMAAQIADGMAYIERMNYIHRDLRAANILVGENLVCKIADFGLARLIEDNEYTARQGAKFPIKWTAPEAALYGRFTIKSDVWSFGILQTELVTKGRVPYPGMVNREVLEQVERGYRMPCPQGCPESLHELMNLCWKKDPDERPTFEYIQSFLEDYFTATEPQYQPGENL
UniProt Q13426: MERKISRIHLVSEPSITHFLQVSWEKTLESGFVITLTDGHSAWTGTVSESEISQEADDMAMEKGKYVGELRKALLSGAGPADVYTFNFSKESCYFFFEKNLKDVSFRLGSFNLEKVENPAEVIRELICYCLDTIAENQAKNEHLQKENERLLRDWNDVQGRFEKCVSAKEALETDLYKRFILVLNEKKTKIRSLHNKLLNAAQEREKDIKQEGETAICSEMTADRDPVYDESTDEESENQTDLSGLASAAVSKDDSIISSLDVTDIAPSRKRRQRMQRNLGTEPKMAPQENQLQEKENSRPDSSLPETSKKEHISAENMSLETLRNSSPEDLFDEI
UniProt O96006: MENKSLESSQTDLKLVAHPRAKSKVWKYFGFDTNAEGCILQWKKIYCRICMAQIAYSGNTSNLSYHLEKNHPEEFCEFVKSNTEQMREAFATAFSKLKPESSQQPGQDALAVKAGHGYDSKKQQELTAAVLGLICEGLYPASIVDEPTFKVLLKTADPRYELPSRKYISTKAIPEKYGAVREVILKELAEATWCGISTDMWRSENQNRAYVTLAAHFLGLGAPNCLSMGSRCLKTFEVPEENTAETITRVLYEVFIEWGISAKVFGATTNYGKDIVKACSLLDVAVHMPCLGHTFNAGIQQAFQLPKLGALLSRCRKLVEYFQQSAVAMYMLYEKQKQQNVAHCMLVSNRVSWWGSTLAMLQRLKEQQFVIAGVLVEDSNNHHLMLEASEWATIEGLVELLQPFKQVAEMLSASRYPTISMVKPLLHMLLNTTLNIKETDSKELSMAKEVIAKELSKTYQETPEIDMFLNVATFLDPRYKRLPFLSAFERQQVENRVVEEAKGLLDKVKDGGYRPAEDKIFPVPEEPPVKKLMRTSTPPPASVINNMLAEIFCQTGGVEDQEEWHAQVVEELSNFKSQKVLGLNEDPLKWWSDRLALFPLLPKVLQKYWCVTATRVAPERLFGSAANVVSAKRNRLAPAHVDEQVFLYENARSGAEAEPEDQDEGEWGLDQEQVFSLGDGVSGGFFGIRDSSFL
UniProt O95070: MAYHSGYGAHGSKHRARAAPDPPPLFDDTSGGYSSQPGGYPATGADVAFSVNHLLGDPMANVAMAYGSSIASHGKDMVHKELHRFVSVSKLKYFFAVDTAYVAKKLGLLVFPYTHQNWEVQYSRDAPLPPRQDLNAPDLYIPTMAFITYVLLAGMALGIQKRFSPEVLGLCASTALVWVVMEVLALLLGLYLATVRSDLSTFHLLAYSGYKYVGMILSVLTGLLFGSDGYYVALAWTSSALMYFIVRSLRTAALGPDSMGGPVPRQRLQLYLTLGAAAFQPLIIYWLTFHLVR
UniProt P25490, whole entry, looked up: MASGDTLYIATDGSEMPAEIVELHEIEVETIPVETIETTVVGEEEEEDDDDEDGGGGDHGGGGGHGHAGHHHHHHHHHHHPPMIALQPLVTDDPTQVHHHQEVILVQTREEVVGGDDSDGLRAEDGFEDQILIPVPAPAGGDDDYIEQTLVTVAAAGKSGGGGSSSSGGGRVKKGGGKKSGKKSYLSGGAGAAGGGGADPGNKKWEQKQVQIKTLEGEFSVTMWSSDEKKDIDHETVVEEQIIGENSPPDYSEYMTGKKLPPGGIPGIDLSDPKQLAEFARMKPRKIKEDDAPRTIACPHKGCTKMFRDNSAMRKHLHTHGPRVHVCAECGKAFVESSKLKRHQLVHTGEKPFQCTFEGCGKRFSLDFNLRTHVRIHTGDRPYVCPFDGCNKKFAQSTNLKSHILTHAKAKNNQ
UniProt Q8IZ13: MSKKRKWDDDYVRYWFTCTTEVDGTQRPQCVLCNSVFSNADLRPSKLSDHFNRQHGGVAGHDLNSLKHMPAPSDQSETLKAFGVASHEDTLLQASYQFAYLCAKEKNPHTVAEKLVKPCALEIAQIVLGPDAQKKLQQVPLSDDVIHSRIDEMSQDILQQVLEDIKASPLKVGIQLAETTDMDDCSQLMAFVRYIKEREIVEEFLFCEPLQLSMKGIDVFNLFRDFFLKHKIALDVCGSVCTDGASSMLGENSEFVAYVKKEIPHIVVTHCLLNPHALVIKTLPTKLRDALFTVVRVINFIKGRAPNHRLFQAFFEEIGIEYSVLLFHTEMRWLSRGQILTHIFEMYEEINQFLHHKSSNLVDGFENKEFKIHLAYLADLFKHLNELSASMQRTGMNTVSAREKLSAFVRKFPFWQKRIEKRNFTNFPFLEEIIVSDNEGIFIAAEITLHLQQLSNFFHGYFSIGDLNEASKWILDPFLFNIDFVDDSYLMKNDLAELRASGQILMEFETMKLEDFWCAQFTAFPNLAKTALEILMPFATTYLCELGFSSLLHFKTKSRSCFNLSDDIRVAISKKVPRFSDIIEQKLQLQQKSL
UniProt P18887, whole entry, looked up: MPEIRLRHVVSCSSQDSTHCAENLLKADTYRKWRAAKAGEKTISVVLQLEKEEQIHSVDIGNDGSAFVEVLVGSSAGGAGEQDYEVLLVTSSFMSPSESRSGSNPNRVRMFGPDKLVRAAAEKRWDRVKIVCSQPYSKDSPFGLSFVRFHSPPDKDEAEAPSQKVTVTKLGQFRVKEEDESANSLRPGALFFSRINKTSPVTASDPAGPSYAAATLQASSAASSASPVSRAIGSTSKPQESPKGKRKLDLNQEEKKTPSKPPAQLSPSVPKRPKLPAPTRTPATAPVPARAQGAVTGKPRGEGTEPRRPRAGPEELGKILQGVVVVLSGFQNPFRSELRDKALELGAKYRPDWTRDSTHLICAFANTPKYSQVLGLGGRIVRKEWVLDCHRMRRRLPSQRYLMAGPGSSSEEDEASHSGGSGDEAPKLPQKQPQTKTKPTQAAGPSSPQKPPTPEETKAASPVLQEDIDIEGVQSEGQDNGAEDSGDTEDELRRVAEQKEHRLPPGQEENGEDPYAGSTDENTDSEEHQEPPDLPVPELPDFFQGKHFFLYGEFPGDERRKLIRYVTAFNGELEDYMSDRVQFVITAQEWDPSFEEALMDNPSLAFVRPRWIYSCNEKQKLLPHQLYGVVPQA
UniProt Q9ULM3: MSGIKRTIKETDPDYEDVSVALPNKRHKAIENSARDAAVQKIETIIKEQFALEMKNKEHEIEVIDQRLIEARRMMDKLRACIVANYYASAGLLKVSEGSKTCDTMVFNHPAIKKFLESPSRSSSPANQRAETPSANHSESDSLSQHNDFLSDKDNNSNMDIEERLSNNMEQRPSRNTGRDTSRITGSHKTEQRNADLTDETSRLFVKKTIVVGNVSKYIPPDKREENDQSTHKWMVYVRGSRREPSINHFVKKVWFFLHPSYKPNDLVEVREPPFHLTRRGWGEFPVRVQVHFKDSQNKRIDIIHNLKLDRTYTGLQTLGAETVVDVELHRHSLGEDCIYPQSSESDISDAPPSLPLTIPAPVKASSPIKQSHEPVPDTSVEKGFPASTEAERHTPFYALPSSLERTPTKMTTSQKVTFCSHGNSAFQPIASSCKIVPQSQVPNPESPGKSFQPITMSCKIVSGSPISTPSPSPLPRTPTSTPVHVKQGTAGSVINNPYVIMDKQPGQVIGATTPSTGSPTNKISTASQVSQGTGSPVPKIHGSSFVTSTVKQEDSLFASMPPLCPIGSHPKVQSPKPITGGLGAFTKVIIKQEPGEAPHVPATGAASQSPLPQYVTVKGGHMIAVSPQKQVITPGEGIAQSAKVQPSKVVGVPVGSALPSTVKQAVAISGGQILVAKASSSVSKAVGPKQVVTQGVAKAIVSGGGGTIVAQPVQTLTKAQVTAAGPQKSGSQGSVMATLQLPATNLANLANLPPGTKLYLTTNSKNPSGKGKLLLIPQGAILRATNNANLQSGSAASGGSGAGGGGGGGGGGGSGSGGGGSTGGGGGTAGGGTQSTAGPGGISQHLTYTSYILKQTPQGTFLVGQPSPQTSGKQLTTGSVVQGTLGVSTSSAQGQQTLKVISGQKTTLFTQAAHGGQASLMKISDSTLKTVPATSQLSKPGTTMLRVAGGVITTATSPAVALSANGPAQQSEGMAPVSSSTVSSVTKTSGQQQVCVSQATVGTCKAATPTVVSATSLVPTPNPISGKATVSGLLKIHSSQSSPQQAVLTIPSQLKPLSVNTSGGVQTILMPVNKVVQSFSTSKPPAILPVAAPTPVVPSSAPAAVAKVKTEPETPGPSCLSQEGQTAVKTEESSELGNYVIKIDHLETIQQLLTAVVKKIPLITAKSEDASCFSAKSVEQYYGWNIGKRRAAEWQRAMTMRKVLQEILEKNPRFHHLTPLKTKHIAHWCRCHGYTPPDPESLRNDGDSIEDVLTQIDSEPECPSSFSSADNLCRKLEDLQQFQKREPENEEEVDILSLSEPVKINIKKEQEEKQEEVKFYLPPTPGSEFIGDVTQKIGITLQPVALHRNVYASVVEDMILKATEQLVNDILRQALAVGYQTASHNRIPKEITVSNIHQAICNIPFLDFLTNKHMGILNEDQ

How the values were obtained:
Experiment in all cases: log2 fold change, soluble protein after heating vs DMSO (PISA); higher = thermal stabilisation; K562 lysate, 10 uM; active = over 0.2 and 3.5 SD of the protein, either way, in both replicates (recomputed)
ibrutinib = compound: C=CC(=O)N1CCC[C@@H](n2nc(-c3ccc(Oc4ccccc4)cc3)c3c(N)ncnc32)C1 [ibrutinib]
Outline: (§1)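 Following dounce homogenisation of K562 pellets in PBS pH 7.4 with 1 mM MgCl2, crude extract at 1 mg/mL protein was incubated for 30 min with 10 μM compound. Aliquots were then heated for 3 min over 48°C-58°C and pooled, NP-40 was added to 0.5% at 4°C, and soluble protein was recovered as the supernatant at 21,000xg for 90 min. Channel-sum-equalised TMTpro 16plex LC-MS/MS quantified this protein. Each value, from duplicates, is a log-two fold change in thermal stability relative to solvent controls.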

[1] = compound: CC(=O)c1cnc2ccc(-c3cc(Cl)c(O)c(Cl)c3)nc2c1N[C@H]1CC[C@H](CN(C)C)CC1
Outline: as §1

ralimetinib = compound: CC(C)(C)Cn1c(N)nc2ccc(-c3[nH]c(C(C)(C)C)nc3-c3ccc(F)cc3)nc21 [ralimetinib]
Outline: as §1

[2] = compound: CC(C)(O)CC(=O)NCCn1ccc2ncnc(Nc3ccc(Oc4cccc(C(F)(F)F)c4)c(Cl)c3)c21
Outline: as §1

[3] = compound: CC(C)C1=C2N=C(C=C(N2N=C1)NCC3=CC=CC=C3)NCCCCCCN
Outline: as §1

[4] = compound: CC1=C(C(CC(=O)N1)C2=CC=C(C=C2)C(F)(F)F)C(=O)NC3=C(C=C4C(=C3)C=NN4)F
Outline: as §1

[5] = compound: CC1=C(C2=C(C=C1)C(=O)C3=CC=CC=C3N2CCCN)C
Outline: as §1

[6] = compound: CC1=C(C=C(C=C1)NC(=O)C2=CC(=CC=C2)C(C)(C)C#N)NC3=CC4=C(C=C3)N=CN(C4=O)C
Outline: as §1

[7] = compound: CC1=C(C=C(C=C1)NC(=O)C2=CC(=CC=C2)N(C)C)NC(=O)C3=CC=C(C=C3)O
Outline: as §1

[8] = compound: CC1=CC=C(C=C1)SC2=C3C=C(SC3=CN=C2)C(=O)N
Outline: as §1

vemurafenib = compound: CCCS(=O)(=O)Nc1ccc(F)c(C(=O)c2c[nH]c3ncc(-c4ccc(Cl)cc4)cc23)c1F [vemurafenib]
Outline: as §1

[9] = compound: CCCS(=O)(=O)Nc1ccc(F)c(C(=O)c2c[nH]c3ncc(Cl)cc23)c1F
Outline: as §1

barasertib = compound: CCN(CCCOc1ccc2c(Nc3cc(CC(=O)Nc4cccc(F)c4)[nH]n3)ncnc2c1)CCOP(=O)(O)O [barasertib]
Outline: as §1

[10] = compound: CC[C@@H]1C(=O)N(C)c2cnc(Nc3ccc(C(=O)NC4CCN(C)CC4)cc3OC)nc2N1C1CCCC1
Outline: as §1

volasertib = compound: CC[C@@H]1C(=O)N(C)c2cnc(Nc3ccc(C(=O)N[C@H]4CC[C@H](N5CCN(CC6CC6)CC5)CC4)cc3OC)nc2N1C(C)C [volasertib]
Outline: as §1

[11] = compound: CCn1c(C(=O)N(C2CC2)C2CC2)cc2c3c(ncn3C)c(Nc3cc(C)n(C)n3)nc21
Outline: as §1

[12] = compound: CCn1cc(-c2ccnc3[nH]c(-c4cccc(CN(C)C)c4)cc23)c(-c2ccc(NC(=O)N(C)C)cc2)n1
Outline: as §1

[13] = compound: CN1CCC(CNc2ccc3ncc(-c4cccc(OC(F)(F)F)c4)n3n2)CC1
Outline: as §1

saracatinib = compound: CN1CCN(CCOc2cc(OC3CCOCC3)c3c(Nc4c(Cl)ccc5c4OCO5)ncnc3c2)CC1 [saracatinib]
Outline: as §1

sotrastaurin = compound: CN1CCN(c2nc(C3=C(c4c[nH]c5ccccc45)C(=O)NC3=O)c3ccccc3n2)CC1 [sotrastaurin]
Outline: as §1

Measured: log2 fold change

ZDHHC3 isoform 2 (UniProt Q9NYG2)
inactive: ibrutinib 0.055 | [1] 0.043 | ralimetinib 0 | [2] -0.121 | [3] -0.043 | [4] 0.082 | [5] 0.152 | [6] 0.051 | [7] 0.03 | [8] 0 | vemurafenib -0.167 | [9] 0.022 | barasertib 0.035 | [10] 0.056 | volasertib -0.021 | [11] -0.062 | [12] -0.204 | [13] 0.053 | saracatinib 0.113 | sotrastaurin 0.041

ZFR (UniProt Q96KR1)
inactive: ibrutinib 0.038 | [1] -0.035 | ralimetinib 0.008 | [2] -0.002 | [3] 0.014 | [4] 0.014 | [5] -0.039 | [6] -0.04 | [7] 0.013 | [8] -0.004 | vemurafenib 0.057 | [9] 0.027 | barasertib 0.011 | [10] 0.047 | volasertib -0.003 | [11] 0.039 | [12] 0.075 | [13] -0.005 | saracatinib 0.018 | sotrastaurin 0.006

YES1 (UniProt P07947)
inactive: [1] -0.012 | ralimetinib -0.259 | [3] 0.061 | [4] 0.2 | [5] 0.044 | [6] 0.192 | [7] -0.005 | [8] -0.131 | vemurafenib 0.068 | [9] 0.088 | barasertib 0.334 | [10] -0.086 | volasertib -0.205 | [11] -0.106 | [12] -0.146 | [13] -0.007 | saracatinib 0.331 | sotrastaurin -0.084
active: ibrutinib 0.988 | [2] 0.511

ZC3H7B (UniProt Q9UGR2)
inactive: ibrutinib 0.051 | [1] 0.092 | ralimetinib 0.026 | [2] -0.04 | [3] 0.065 | [4] 0.041 | [5] 0 | [6] -0.044 | [7] 0.076 | [8] -0.104 | vemurafenib 0.031 | [9] 0.046 | barasertib 0.061 | [10] 0.022 | volasertib -0.033 | [11] -0.025 | [12] 0.03 | [13] -0.08 | saracatinib -0.002 | sotrastaurin 0.04

ZFYVE26 (UniProt Q68DK2)
inactive: ibrutinib -0.148 | [1] -0.258 | ralimetinib -0.092 | [2] -0.02 | [3] 0.074 | [4] -0.038 | [6] 0.034 | [7] -0.146 | [8] 0.206 | vemurafenib -0.135 | [9] 0.072 | barasertib -0.151 | volasertib 0 | [11] 0.184 | sotrastaurin -0.073

XRCC4 (UniProt Q13426)
inactive: ibrutinib 0.056 | [1] -0.007 | ralimetinib 0 | [2] -0.055 | [3] -0.042 | [4] -0.021 | [5] 0.009 | [6] -0.035 | [7] 0.009 | [8] 0 | vemurafenib 0 | [9] 0.02 | barasertib 0.005 | [10] -0.009 | volasertib 0.025 | [11] 0.011 | [12] -0.096 | [13] 0.067 | saracatinib 0.014 | sotrastaurin -0.018

ZBTB24 (UniProt O43167)
inactive: ibrutinib -0.02 | [1] 0.044 | ralimetinib -0.093 | [2] -0.151 | [3] -0.102 | [4] 0.078 | [5] -0.113 | [6] 0.005 | [7] 0.095 | [8] 0.089 | [9] 0.04 | barasertib -0.01 | [10] 0.051 | volasertib -0.141 | [11] -0.047 | [12] -0.026 | [13] -0.032 | saracatinib -0.005 | sotrastaurin 0.023

ZFYVE1 (UniProt Q9HBF4)
inactive: ibrutinib 0.095 | [1] 0.04 | ralimetinib 0.049 | [2] -0.031 | [3] -0.019 | [4] 0.14 | [5] -0.039 | [6] 0.286 | [7] -0.053 | [8] -0.017 | [9] -0.012 | barasertib 0.018 | volasertib 0.051 | [11] -0.022 | [12] -0.011 | [13] -0.158 | saracatinib -0.016 | sotrastaurin 0.16

ZBED1 (UniProt O96006)
inactive: ibrutinib 0.104 | [1] 0.004 | ralimetinib -0.012 | [2] 0.017 | [3] -0.032 | [4] 0.006 | [5] 0.046 | [6] -0.02 | [7] 0.017 | [8] -0.077 | vemurafenib 0.033 | [9] -0.021 | barasertib -0.004 | [10] 0.033 | volasertib -0.067 | [11] -0.016 | [12] 0.001 | [13] -0.042 | saracatinib -0.062 | sotrastaurin -0.042

XPOT (UniProt O43592)
inactive: ibrutinib -0.012 | [1] 0.009 | ralimetinib 0.006 | [2] -0.038 | [3] -0.014 | [4] 0 | [5] 0.013 | [6] 0.016 | [7] 0.007 | [8] 0.018 | vemurafenib -0.023 | [9] 0.014 | barasertib 0.011 | [10] -0.097 | volasertib -0.047 | [11] 0.036 | [12] -0.065 | [13] -0.001 | saracatinib -0.005 | sotrastaurin 0.002

YIF1B (UniProt Q5BJH7)
inactive: ibrutinib 0.026 | [1] -0.055 | ralimetinib 0.012 | [2] -0.026 | [3] -0.006 | [4] 0.022 | [5] 0.055 | [6] 0.036 | [7] 0.073 | [8] 0.011 | vemurafenib -0.01 | [9] 0.023 | barasertib 0.02 | [10] -0.032 | volasertib 0.01 | [11] 0.034 | [12] -0.028 | [13] -0.071 | saracatinib 0.011 | sotrastaurin 0.012

YIF1A (UniProt O95070)
inactive: ibrutinib 0.143 | [1] -0.075 | ralimetinib 0.019 | [2] 0.034 | [3] -0.072 | [5] 0.025 | [6] 0.038 | [7] -0.044 | [8] 0.133 | vemurafenib -0.041 | [9] -0.097 | barasertib -0.061 | [10] -0.008 | volasertib 0.05 | [11] -0.031 | [12] 0.075 | [13] -0.156 | saracatinib 0.024 | sotrastaurin 0.012

YY1 (UniProt P25490)
inactive: ibrutinib 0.005 | [1] 0.056 | ralimetinib 0.017 | [2] 0.043 | [3] -0.035 | [4] 0.025 | [5] 0.022 | [6] -0.012 | [7] -0.008 | [8] 0.029 | vemurafenib -0.049 | [9] -0.005 | barasertib 0.047 | [10] -0.126 | volasertib 0.011 | [11] 0.054 | [12] 0.097 | [13] -0.122 | saracatinib 0.012 | sotrastaurin -0.043

ZBED8 (UniProt Q8IZ13)
inactive: ibrutinib 0.054 | [1] -0.011 | ralimetinib 0.039 | [2] -0.041 | [3] 0.025 | [4] 0.027 | [5] -0.01 | [6] 0.023 | [7] -0.06 | [8] 0.022 | vemurafenib -0.013 | [9] 0.019 | barasertib 0.006 | [10] 0.058 | volasertib -0.013 | [11] -0.051 | saracatinib -0.067 | sotrastaurin -0.018

XRCC1 (UniProt P18887)
inactive: ibrutinib 0.038 | [1] 0 | ralimetinib 0.028 | [2] 0 | [3] -0.005 | [4] 0.015 | [5] 0.081 | [6] -0.011 | [7] -0.002 | [8] 0 | vemurafenib -0.004 | [9] -0.019 | barasertib -0.014 | [10] -0.019 | volasertib -0.004 | [11] -0.035 | [12] 0.106 | [13] -0.126 | saracatinib 0.026 | sotrastaurin 0.007

2 successive entries out of the list so far, for reference:
YIF1B (UniProt Q5BJH7)
inactive: ibrutinib 0.026 | [1] -0.055 | ralimetinib 0.012 | [2] -0.026 | [3] -0.006 | [4] 0.022 | [5] 0.055 | [6] 0.036 | [7] 0.073 | [8] 0.011 | vemurafenib -0.01 | [9] 0.023 | barasertib 0.02 | [10] -0.032 | volasertib 0.01 | [11] 0.034 | [12] -0.028 | [13] -0.071 | saracatinib 0.011 | sotrastaurin 0.012

YIF1A (UniProt O95070)
inactive: ibrutinib 0.143 | [1] -0.075 | ralimetinib 0.019 | [2] 0.034 | [3] -0.072 | [5] 0.025 | [6] 0.038 | [7] -0.044 | [8] 0.133 | vemurafenib -0.041 | [9] -0.097 | barasertib -0.061 | [10] -0.008 | volasertib 0.05 | [11] -0.031 | [12] 0.075 | [13] -0.156 | saracatinib 0.024 | sotrastaurin 0.012

Later entries.

YEATS2 (UniProt Q9ULM3)
inactive: ibrutinib 0.037 | [1] 0.014 | ralimetinib 0.109 | [2] -0.186 | [3] 0.088 | [4] -0.073 | [6] 0.02 | [7] 0.189 | [8] -0.098 | vemurafenib 0.053 | [9] 0.183 | barasertib 0.085 | [10] 0.072 | volasertib -0.08 | [11] -0.093 | sotrastaurin 0.074

ZBTB3 (UniProt Q9H5J0)
inactive: ibrutinib 0.029 | [1] 0.097 | ralimetinib -0.014 | [2] -0.028 | [3] 0.052 | [5] 0.05 | [6] 0.103 | [7] 0.071 | [8] -0.223 | vemurafenib 0.007 | [9] 0.208 | barasertib -0.023 | [10] 0.068 | volasertib -0.088 | [11] -0.053 | [12] 0.031 | [13] 0.012 | saracatinib 0.06 | sotrastaurin 0.018
